Results reported in paper PMC3737532.
These are yes or no findings as the source states them, for the method shown. In cells and extracts the contact can be indirect. Binding can be weak; no strength is given. Where a sequence is shown, tags or fusion partners need not be part of it.

How the values were obtained:
[1] = molecular target: T1, GFP-CARM1FL (human) (UniProt Q86X55); test: co-IP; exogenous GFP-CARM1FL co-transfected with Flag-CARM1FL or Flag-CARM1ΔE15 into HEK293 cells (Supplementary Figure S1); which partner was precipitated is not told
T1 sequence: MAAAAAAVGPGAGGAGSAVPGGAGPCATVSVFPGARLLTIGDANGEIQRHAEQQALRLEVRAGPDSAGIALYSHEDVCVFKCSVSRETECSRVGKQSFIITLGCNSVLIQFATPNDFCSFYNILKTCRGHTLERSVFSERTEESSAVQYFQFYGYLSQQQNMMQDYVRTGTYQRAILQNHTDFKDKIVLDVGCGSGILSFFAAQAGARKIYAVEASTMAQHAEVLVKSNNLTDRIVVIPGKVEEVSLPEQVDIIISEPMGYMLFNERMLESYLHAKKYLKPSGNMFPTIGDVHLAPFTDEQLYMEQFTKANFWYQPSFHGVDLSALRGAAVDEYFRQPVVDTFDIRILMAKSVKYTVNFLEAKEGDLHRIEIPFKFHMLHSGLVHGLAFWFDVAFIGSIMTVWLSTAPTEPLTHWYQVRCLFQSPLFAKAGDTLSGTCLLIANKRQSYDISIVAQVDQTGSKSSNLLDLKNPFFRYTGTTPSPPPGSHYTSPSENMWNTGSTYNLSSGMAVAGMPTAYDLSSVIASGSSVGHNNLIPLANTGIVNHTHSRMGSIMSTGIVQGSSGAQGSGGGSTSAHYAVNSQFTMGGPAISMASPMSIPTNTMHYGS

[2] = molecular target: T1, GFP-CARM1FL (human); test: co-IP; GFP, GFP-CARM1FL or GFP-CARM1ΔE15 transiently transfected for 24 h; GFP fusion immunoprecipitated with GFP antibody; endogenous CARM1 in the immunoprecipitates detected by western blot with E16 Ab

Substance | binding [1] | binding [2]
Flag-CARM1ΔE15 (human) | binds | 
endogenous CARM1ΔE15 (human (endogenous in HEK293)) |  | binds
